# The list shows a part of the results. Repeats are few or missing, and single values can be far off.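 Imaging used 1,536-well plates; nuclei positive for cleaved PARP by antibody were divided by total DNA-stained nuclei to yield the apoptosis fraction. Doses for screening kept most cells viable, and cell lines differ markedly in resting and induced cleaved-PARP levels.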
# Test system: IPC-298
# Assay: cleaved PARP positive nuclei fraction relative to DMSO control; melanoma cells; higher = more apoptosis
# Details: library dose: low library concentration; 72 h
row,SMILES,cleaved PARP positive nuclei fraction [%]
1,"CC1(C)CCC(c2ccc(Cl)cc2)=C(CN2CCN(c3ccc(C(=O)NS(=O)(=O)c4ccc(N[C@H](CCN5CCOCC5)CSc5ccccc5)c(S(=O)(=O)C(F)(F)F)c4)cc3)CC2)C1 + Cc1cn(-c2cc(NC(=O)c3ccc(C)c(Nc4nccc(-c5cccnc5)n4)c3)cc(C(F)(F)F)c2)cn1 [nilotinib] (first compound 0.4 µM, partner dose 0.2 µM)",161
2,"C[C@@H](N)c1ccc(C(=O)Nc2ccnc3[nH]ccc23)cc1 + CCCCCCCCc1ccc(CCC(N)(CO)CO)cc1 [fingolimod] (first compound 0.4 µM, partner dose 2 µM)",27.9
3,"Cn1cnc2c(F)c(Nc3ccc(Br)cc3Cl)c(C(=O)NOCCO)cc21 [selumetinib] + CCCCCCCCc1ccc(CCC(N)(CO)CO)cc1 [fingolimod] (first compound 0.015 µM, partner dose 2 µM)",404
4,"C[C@]1(O)C[C@@H](c2nc(-c3ccc4ccc(-c5ccccc5)nc4c3)c3c(N)nccn32)C1 + Nc1ccn([C@@H]2O[C@H](CO)[C@@H](O)C2(F)F)c(=O)n1 [gemcitabine] (first compound 0.4 µM, partner dose 0.0004 µM)",201
5,"CCCCCCCCc1ccc(CCC(N)(CO)CO)cc1 [fingolimod] + Nc1nc(F)nc2c1ncn2[C@@H]1O[C@H](CO)[C@@H](O)[C@@H]1O [fludarabine] (first compound 2 µM, partner dose 0.2 µM)",93.4
6,"CCCCCCCCc1ccc(CCC(N)(CO)CO)cc1 [fingolimod] + C#Cc1cccc(Nc2ncnc3cc(OCCOC)c(OCCOC)cc23)c1 [erlotinib] (first compound 2 µM, partner dose 0.8 µM)",145
7,"C[C@]1(O)C[C@@H](c2nc(-c3ccc4ccc(-c5ccccc5)nc4c3)c3c(N)nccn32)C1 + O=C(O)[C@@H]1[O][Sb](=[O])([O][Sb]2(=[O])[O][C@H]([C@H](O)CO)[C@H](O)[C@H](C(=O)O)[O]2)[O][C@H]([C@H](O)CO)[C@@H]1O [stibogluconate] (first compound 0.4 µM, partner dose 2 µM)",60
8,"CC1(C)CCC(c2ccc(Cl)cc2)=C(CN2CCN(c3ccc(C(=O)NS(=O)(=O)c4ccc(N[C@H](CCN5CCOCC5)CSc5ccccc5)c(S(=O)(=O)C(F)(F)F)c4)cc3)CC2)C1 + COc1ccc(Cl)c(Nc2nc3ccccc3nc2NS(=O)(=O)c2cccc(NC(=O)C(C)(C)N)c2)c1 [XL147] (first compound 0.4 µM, partner dose 0.8 µM)",134
9,"CC(=O)O[C@@]12CO[C@@H]1C[C@H](O)[C@@]1(C)C(=O)[C@H](O)C3=C(C)[C@@H](OC(=O)[C@H](O)[C@@H](NC(=O)OC(C)(C)C)c4ccccc4)C[C@@](O)([C@@H](OC(=O)c4ccccc4)[C@H]21)C3(C)C [Docetaxel] + Cc1nc(Nc2ncc(C(=O)Nc3c(C)cccc3Cl)s2)cc(N2CCN(CCO)CC2)n1 [dasatanib] (first compound 0.0001 µM, partner dose 0.004 µM)",437
10,"CN(c1ncccc1CNc1nc(Nc2ccc3c(c2)CC(=O)N3)ncc1C(F)(F)F)S(C)(=O)=O + C=CCNC1=C2C[C@@H](C)C[C@H](OC)[C@H](O)[C@@H](C)/C=C(\C)[C@H](OC(N)=O)[C@@H](OC)/C=C\C=C(/C)C(=O)NC(=CC1=O)C2=O [Tanespimycin] (first compound 0.08 µM, partner dose 0.002 µM)",140
11,"C[C@]1(O)C[C@@H](c2nc(-c3ccc4ccc(-c5ccccc5)nc4c3)c3c(N)nccn32)C1 + CCN(CC)CCNC(=O)c1c(C)[nH]c(/C=C2\C(=O)Nc3ccc(F)cc32)c1C [sunitinib] (first compound 0.4 µM, partner dose 0.4 µM)",47.4
12,"C[C@]1(O)C[C@@H](c2nc(-c3ccc4ccc(-c5ccccc5)nc4c3)c3c(N)nccn32)C1 + C[C@]1(c2nc3c(C(N)=O)cccc3[nH]2)CCCN1 [Veliparib] (first compound 0.4 µM, partner dose 1.4 µM)",44
13,"CCN(CC)CCNC(=O)c1c(C)[nH]c(/C=C2\C(=O)Nc3ccc(F)cc32)c1C [sunitinib] + C[C@]1(c2nc3c(C(N)=O)cccc3[nH]2)CCCN1 [Veliparib] (first compound 0.4 µM, partner dose 1.4 µM)",89.8
14,"CC1(C)CCC(c2ccc(Cl)cc2)=C(CN2CCN(c3ccc(C(=O)NS(=O)(=O)c4ccc(N[C@H](CCN5CCOCC5)CSc5ccccc5)c(S(=O)(=O)C(F)(F)F)c4)cc3)CC2)C1 + CN1CCN(c2ccc3nc(-c4c(N)c5c(F)cccc5[nH]c4=O)[nH]c3c2)CC1 [Dovitinib] (first compound 0.4 µM, partner dose 0.1 µM)",136
15,"Cn1sc(=O)n(Cc2ccccc2)c1=O + Cn1c(Nc2ccc(C(F)(F)F)cc2)nc2cc(Oc3ccnc(-c4ncc(C(F)(F)F)[nH]4)c3)ccc21 [CHIR265] (first compound 0.4 µM, partner dose 0.08 µM)",447
16,"Cn1cnc2c(F)c(Nc3ccc(Br)cc3Cl)c(C(=O)NOCCO)cc21 [selumetinib] + C#Cc1cccc(Nc2ncnc3cc(OCCOC)c(OCCOC)cc23)c1 [erlotinib] (first compound 0.015 µM, partner dose 0.8 µM)",196
17,"NC(=O)c1ccc(N(C(N)=O)c2c(F)cccc2F)nc1-c1ccc(F)cc1F + C[C@@H](Oc1cc(-c2cnn(C3CCNCC3)c2)cnc1N)c1c(Cl)ccc(F)c1Cl [Crizotinib] (first compound 0.4 µM, partner dose 0.2 µM)",43.3
18,"CCN(CC)CCNC(=O)c1c(C)[nH]c(/C=C2\C(=O)Nc3ccc(F)cc32)c1C [sunitinib] + Nc1ccn([C@@H]2O[C@H](CO)[C@@H](O)C2(F)F)c(=O)n1 [gemcitabine] (first compound 0.4 µM, partner dose 0.0004 µM)",86.3
19,"CC1(C)CCC(c2ccc(Cl)cc2)=C(CN2CCN(c3ccc(C(=O)NS(=O)(=O)c4ccc(N[C@H](CCN5CCOCC5)CSc5ccccc5)c(S(=O)(=O)C(F)(F)F)c4)cc3)CC2)C1 + CS(=O)(=O)CCNCc1ccc(-c2ccc3ncnc(Nc4ccc(OCc5cccc(F)c5)c(Cl)c4)c3c2)o1 [lapatinib] (first compound 0.4 µM, partner dose 0.8 µM)",87.6
20,"CC1(C)CCC(c2ccc(Cl)cc2)=C(CN2CCN(c3ccc(C(=O)NS(=O)(=O)c4ccc(N[C@H](CCN5CCOCC5)CSc5ccccc5)c(S(=O)(=O)C(F)(F)F)c4)cc3)CC2)C1 + CCCS(=O)(=O)Nc1ccc(F)c(C(=O)c2c[nH]c3ncc(Cl)cc23)c1F [PLX4720] (first compound 0.4 µM, partner dose 0.08 µM)",418
21,"CN(c1ncccc1CNc1nc(Nc2ccc3c(c2)CC(=O)N3)ncc1C(F)(F)F)S(C)(=O)=O + NC1(c2ccc(-c3nc4ccn5c(=O)[nH]nc5c4cc3-c3ccccc3)cc2)CCC1 [MK2206] (first compound 0.08 µM, partner dose 0.4 µM)",46.3
22,"C[C@@H](N)c1ccc(C(=O)Nc2ccnc3[nH]ccc23)cc1 + Nc1ccn([C@@H]2O[C@H](CO)[C@@H](O)C2(F)F)c(=O)n1 [gemcitabine] (first compound 0.4 µM, partner dose 0.0004 µM)",88.8
23,"CS(=O)(=O)c1ccc(C(=O)Nc2ccc(Cl)c(-c3ccccn3)c2)c(Cl)c1 [vismodegib] + CCCCCCCCc1ccc(CCC(N)(CO)CO)cc1 [fingolimod] (first compound 1 µM, partner dose 2 µM)",49
24,"C[C@@H](N)c1ccc(C(=O)Nc2ccnc3[nH]ccc23)cc1 + Nc1ncn([C@H]2C[C@H](O)[C@@H](CO)O2)c(=O)n1 [decitabine] (first compound 0.4 µM, partner dose 0.1 µM)",274
25,"C[C@]1(O)C[C@@H](c2nc(-c3ccc4ccc(-c5ccccc5)nc4c3)c3c(N)nccn32)C1 + CS(=O)(=O)c1ccc(C(=O)Nc2ccc(Cl)c(-c3ccccn3)c2)c(Cl)c1 [vismodegib] (first compound 0.4 µM, partner dose 1 µM)",62.4
26,"C[C@@H](N)c1ccc(C(=O)Nc2ccnc3[nH]ccc23)cc1 + CCCS(=O)(=O)Nc1ccc(F)c(C(=O)c2c[nH]c3ncc(Cl)cc23)c1F [PLX4720] (first compound 0.4 µM, partner dose 0.08 µM)",85
27,"CN(c1ncccc1CNc1nc(Nc2ccc3c(c2)CC(=O)N3)ncc1C(F)(F)F)S(C)(=O)=O + O=C(O)c1ccc2c(c1)nc(Nc1cccc(Cl)c1)c1ccncc12 [CX4945] (first compound 0.08 µM, partner dose 0.4 µM)",179
28,"NC(=O)c1ccc(N(C(N)=O)c2c(F)cccc2F)nc1-c1ccc(F)cc1F + C=CCNC1=C2C[C@@H](C)C[C@H](OC)[C@H](O)[C@@H](C)/C=C(\C)[C@H](OC(N)=O)[C@@H](OC)/C=C\C=C(/C)C(=O)NC(=CC1=O)C2=O [Tanespimycin] (first compound 0.4 µM, partner dose 0.002 µM)",42.6
29,"Cn1cnc2c(F)c(Nc3ccc(Br)cc3Cl)c(C(=O)NOCCO)cc21 [selumetinib] + Nc1ccn([C@@H]2O[C@H](CO)[C@@H](O)C2(F)F)c(=O)n1 [gemcitabine] (first compound 0.015 µM, partner dose 0.0004 µM)",254

# Two entries from above in a different format:
row	SMILES	cleaved PARP positive nuclei fraction [%]
16	Cn1cnc2c(F)c(Nc3ccc(Br)cc3Cl)c(C(=O)NOCCO)cc21 [selumetinib] + C#Cc1cccc(Nc2ncnc3cc(OCCOC)c(OCCOC)cc23)c1 [erlotinib] (first compound 0.015 µM, partner dose 0.8 µM)	196
19	CC1(C)CCC(c2ccc(Cl)cc2)=C(CN2CCN(c3ccc(C(=O)NS(=O)(=O)c4ccc(N[C@H](CCN5CCOCC5)CSc5ccccc5)c(S(=O)(=O)C(F)(F)F)c4)cc3)CC2)C1 + CS(=O)(=O)CCNCc1ccc(-c2ccc3ncnc(Nc4ccc(OCc5cccc(F)c5)c(Cl)c4)c3c2)o1 [lapatinib] (first compound 0.4 µM, partner dose 0.8 µM)	87.6
